Experimental data: patent publication US20170247694
Results from cells or extracts need not show a direct contact. Construct, isoform or probe ends are uncertain for at least one entry. Negatives hold for the conditions tested.

By UniProt entry, the sequences of proteins in these tests, tags left out. Where a name states a change or a piece, a line headed by the entry shows the natural chain unless it says otherwise.
UniProt Q99612: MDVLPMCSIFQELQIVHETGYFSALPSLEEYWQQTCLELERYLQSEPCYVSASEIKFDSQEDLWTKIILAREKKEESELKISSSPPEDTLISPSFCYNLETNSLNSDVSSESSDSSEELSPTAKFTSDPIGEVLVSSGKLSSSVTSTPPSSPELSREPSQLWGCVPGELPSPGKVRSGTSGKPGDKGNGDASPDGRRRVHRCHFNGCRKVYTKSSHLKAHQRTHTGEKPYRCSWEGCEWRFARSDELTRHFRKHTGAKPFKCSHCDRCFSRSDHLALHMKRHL
UniProt Q13886: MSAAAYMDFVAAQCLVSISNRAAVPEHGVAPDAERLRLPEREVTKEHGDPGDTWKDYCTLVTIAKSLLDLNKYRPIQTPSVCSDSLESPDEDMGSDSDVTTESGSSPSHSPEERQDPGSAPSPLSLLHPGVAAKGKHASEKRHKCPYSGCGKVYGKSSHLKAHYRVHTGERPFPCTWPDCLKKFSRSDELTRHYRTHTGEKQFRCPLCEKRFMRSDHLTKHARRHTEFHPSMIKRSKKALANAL
UniProt Q9UIH9: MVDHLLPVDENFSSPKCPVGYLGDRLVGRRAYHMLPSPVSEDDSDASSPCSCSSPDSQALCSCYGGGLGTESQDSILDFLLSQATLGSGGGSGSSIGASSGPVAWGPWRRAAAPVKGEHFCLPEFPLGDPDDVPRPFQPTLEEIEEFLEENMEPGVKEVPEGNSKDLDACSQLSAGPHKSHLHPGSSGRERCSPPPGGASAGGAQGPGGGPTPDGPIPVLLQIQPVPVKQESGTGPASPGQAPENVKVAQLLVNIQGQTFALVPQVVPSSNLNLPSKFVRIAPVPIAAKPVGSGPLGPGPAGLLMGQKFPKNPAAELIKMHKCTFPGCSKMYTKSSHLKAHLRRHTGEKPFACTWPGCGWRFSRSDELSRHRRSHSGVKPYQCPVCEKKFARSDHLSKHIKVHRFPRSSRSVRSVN

Assays:
Assay in all cases: binding assay
KLF6 = KLF6 (UniProt Q99612); details: protein in an extract, protein details: HeLa nuclear extract, Active Motif 36010, label: biotin
KLF9 = KLF9 (UniProt Q13886); details: protein in an extract, protein details: HeLa nuclear extract, Active Motif 36010, label: biotin
KLF15 = KLF15 (UniProt Q9UIH9); details: protein in an extract, label: biotin
[1] = ELISA, lack of KLF binding to mutant decoys
[2] = ELISA on nuclear extract, text says acts through KLF6, 9 and/or 15

Sequence | binding result (KLF6; [1]) | binding result (KLF9; [1]) | binding result (KLF15; [1]) | binding result (KLF6; [2]) | binding result (KLF9; [2]) | binding result (KLF15; [2])
ATGCAGGAGAAAGATTGGCGTAGTATCTACTAG / CTTCATGATTTTATTGCTTTCAAAATCCAAAAT [MUT1] | no binding | no binding | no binding |  |  | 
GATCCTTTGCCTCCTTCGATCCTTTGCCTCCTTCAAG (double strand) [TFD16] |  |  |  | binds | binds | binds
GGTGTTTGGGAGAGCTTTGGGAGGATACG (double strand) [TFD17] |  |  |  | binds | binds | binds
GTTATGCGTTTGTAGATGCTTTCGTTATAG / CTATTTCGAAACGATCTACATTGGCATAAC [MUT2] | no binding | no binding | no binding |  |  | 
